B1: SPAM1-VKDT: C-terminally truncated human PH20, precursor 452 aa (SEQ ID NO:42), mature 417 aa (SEQ ID NO:94) (protein, listed as Homo sapiens)
chain 1: MGVLKFKHIFFRSFVKSSGVSQIVFTFLLIPCCLTLNFRAPPVIPNVPFLWAWNAPSEFCLGKFDEPLDMSLFSFIGSPRINATGQGVTIFYVDRLGYYPYIDSITGVTVNGGIPQKISLQDHLDKAKKDITFYMPVDNLGMAVIDWEEWRPTWARNWKPKDVYKNRSIELVQQQNVQLSLTEATEKAKQEFEKAGKDFLVETIKLGKLLRPNHLWGYYLFPDCYNHHYKKPGYNGSCFNVEIKRNDDLSWLWNESTALYPSIYLNTQQSPVAATLYVRNRVREAIRVSKIPDAKSPLPVFAYTRIVFTDQVLKFLSQDELVYTFGETVALGASGIVIWGTLSIMRSMKSCLLLDNYMETILNPYIINVTLAAKMCSQVLCQEQGVCIRKNWNSSDYLHLNPDNFAIQLEKGGKFTVRGKPTLEDLEQFSEKFYCSCYSTLSCKEKADVKDT
chain 2: LNFRAPPVIPNVPFLWAWNAPSEFCLGKFDEPLDMSLFSFIGSPRINATGQGVTIFYVDRLGYYPYIDSITGVTVNGGIPQKISLQDHLDKAKKDITFYMPVDNLGMAVIDWEEWRPTWARNWKPKDVYKNRSIELVQQQNVQLSLTEATEKAKQEFEKAGKDFLVETIKLGKLLRPNHLWGYYLFPDCYNHHYKKPGYNGSCFNVEIKRNDDLSWLWNESTALYPSIYLNTQQSPVAATLYVRNRVREAIRVSKIPDAKSPLPVFAYTRIVFTDQVLKFLSQDELVYTFGETVALGASGIVIWGTLSIMRSMKSCLLLDNYMETILNPYIINVTLAAKMCSQVLCQEQGVCIRKNWNSSDYLHLNPDNFAIQLEKGGKFTVRGKPTLEDLEQFSEKFYCSCYSTLSCKEKADVKDT
modifications: HuPH20 precursor 1-452; Mature HuPH20 36-452
B2: SPAM1-FIVS: C-terminally truncated human PH20, precursor 497 aa (SEQ ID NO:8), mature 462 aa (SEQ ID NO:60) (protein, listed as Homo sapiens)
chain 1: MGVLKFKHIFFRSFVKSSGVSQIVFTFLLIPCCLTLNFRAPPVIPNVPFLWAWNAPSEFCLGKFDEPLDMSLFSFIGSPRINATGQGVTIFYVDRLGYYPYIDSITGVTVNGGIPQKISLQDHLDKAKKDITFYMPVDNLGMAVIDWEEWRPTWARNWKPKDVYKNRSIELVQQQNVQLSLTEATEKAKQEFEKAGKDFLVETIKLGKLLRPNHLWGYYLFPDCYNHHYKKPGYNGSCFNVEIKRNDDLSWLWNESTALYPSIYLNTQQSPVAATLYVRNRVREAIRVSKIPDAKSPLPVFAYTRIVFTDQVLKFLSQDELVYTFGETVALGASGIVIWGTLSIMRSMKSCLLLDNYMETILNPYIINVTLAAKMCSQVLCQEQGVCIRKNWNSSDYLHLNPDNFAIQLEKGGKFTVRGKPTLEDLEQFSEKFYCSCYSTLSCKEKADVKDTDAVDVCIADGVCIDAFLKPPMETEEPQIFYNASPSTLSATMFIVS
chain 2: LNFRAPPVIPNVPFLWAWNAPSEFCLGKFDEPLDMSLFSFIGSPRINATGQGVTIFYVDRLGYYPYIDSITGVTVNGGIPQKISLQDHLDKAKKDITFYMPVDNLGMAVIDWEEWRPTWARNWKPKDVYKNRSIELVQQQNVQLSLTEATEKAKQEFEKAGKDFLVETIKLGKLLRPNHLWGYYLFPDCYNHHYKKPGYNGSCFNVEIKRNDDLSWLWNESTALYPSIYLNTQQSPVAATLYVRNRVREAIRVSKIPDAKSPLPVFAYTRIVFTDQVLKFLSQDELVYTFGETVALGASGIVIWGTLSIMRSMKSCLLLDNYMETILNPYIINVTLAAKMCSQVLCQEQGVCIRKNWNSSDYLHLNPDNFAIQLEKGGKFTVRGKPTLEDLEQFSEKFYCSCYSTLSCKEKADVKDTDAVDVCIADGVCIDAFLKPPMETEEPQIFYNASPSTLSATMFIVS
modifications: HuPH20 precursor 1-497; esHuPH20 36-497
B3: SPAM1-ADVK: C-terminally truncated human PH20, precursor 450 aa (SEQ ID NO:43), mature 415 aa (SEQ ID NO:95) (protein, listed as Homo sapiens)
chain: MGVLKFKHIFFRSFVKSSGVSQIVFTFLLIPCCLTLNFRAPPVIPNVPFLWAWNAPSEFCLGKFDEPLDMSLFSFIGSPRINATGQGVTIFYVDRLGYYPYIDSITGVTVNGGIPQKISLQDHLDKAKKDITFYMPVDNLGMAVIDWEEWRPTWARNWKPKDVYKNRSIELVQQQNVQLSLTEATEKAKQEFEKAGKDFLVETIKLGKLLRPNHLWGYYLFPDCYNHHYKKPGYNGSCFNVEIKRNDDLSWLWNESTALYPSIYLNTQQSPVAATLYVRNRVREAIRVSKIPDAKSPLPVFAYTRIVFTDQVLKFLSQDELVYTFGETVALGASGIVIWGTLSIMRSMKSCLLLDNYMETILNPYIINVTLAAKMCSQVLCQEQGVCIRKNWNSSDYLHLNPDNFAIQLEKGGKFTVRGKPTLEDLEQFSEKFYCSCYSTLSCKEKADVK
modifications: HuPH20 precursor 1-450
B4: SPAM1-FLII: C-terminally truncated human PH20, precursor 503 aa (SEQ ID NO:5), mature 468 aa (SEQ ID NO:57) (protein, listed as Homo sapiens)
chain 1: MGVLKFKHIFFRSFVKSSGVSQIVFTFLLIPCCLTLNFRAPPVIPNVPFLWAWNAPSEFCLGKFDEPLDMSLFSFIGSPRINATGQGVTIFYVDRLGYYPYIDSITGVTVNGGIPQKISLQDHLDKAKKDITFYMPVDNLGMAVIDWEEWRPTWARNWKPKDVYKNRSIELVQQQNVQLSLTEATEKAKQEFEKAGKDFLVETIKLGKLLRPNHLWGYYLFPDCYNHHYKKPGYNGSCFNVEIKRNDDLSWLWNESTALYPSIYLNTQQSPVAATLYVRNRVREAIRVSKIPDAKSPLPVFAYTRIVFTDQVLKFLSQDELVYTFGETVALGASGIVIWGTLSIMRSMKSCLLLDNYMETILNPYIINVTLAAKMCSQVLCQEQGVCIRKNWNSSDYLHLNPDNFAIQLEKGGKFTVRGKPTLEDLEQFSEKFYCSCYSTLSCKEKADVKDTDAVDVCIADGVCIDAFLKPPMETEEPQIFYNASPSTLSATMFIVSILFLII
chain 2: LNFRAPPVIPNVPFLWAWNAPSEFCLGKFDEPLDMSLFSFIGSPRINATGQGVTIFYVDRLGYYPYIDSITGVTVNGGIPQKISLQDHLDKAKKDITFYMPVDNLGMAVIDWEEWRPTWARNWKPKDVYKNRSIELVQQQNVQLSLTEATEKAKQEFEKAGKDFLVETIKLGKLLRPNHLWGYYLFPDCYNHHYKKPGYNGSCFNVEIKRNDDLSWLWNESTALYPSIYLNTQQSPVAATLYVRNRVREAIRVSKIPDAKSPLPVFAYTRIVFTDQVLKFLSQDELVYTFGETVALGASGIVIWGTLSIMRSMKSCLLLDNYMETILNPYIINVTLAAKMCSQVLCQEQGVCIRKNWNSSDYLHLNPDNFAIQLEKGGKFTVRGKPTLEDLEQFSEKFYCSCYSTLSCKEKADVKDTDAVDVCIADGVCIDAFLKPPMETEEPQIFYNASPSTLSATMFIVSILFLII
modifications: HuPH20 precursor 1-503; mature HuPH20 36-503
B5: SPAM1-LFLI: C-terminally truncated human PH20, precursor 502 aa (SEQ ID NO:47), mature 467 aa (SEQ ID NO:99) (protein, listed as Homo sapiens)
chain 1: MGVLKFKHIFFRSFVKSSGVSQIVFTFLLIPCCLTLNFRAPPVIPNVPFLWAWNAPSEFCLGKFDEPLDMSLFSFIGSPRINATGQGVTIFYVDRLGYYPYIDSITGVTVNGGIPQKISLQDHLDKAKKDITFYMPVDNLGMAVIDWEEWRPTWARNWKPKDVYKNRSIELVQQQNVQLSLTEATEKAKQEFEKAGKDFLVETIKLGKLLRPNHLWGYYLFPDCYNHHYKKPGYNGSCFNVEIKRNDDLSWLWNESTALYPSIYLNTQQSPVAATLYVRNRVREAIRVSKIPDAKSPLPVFAYTRIVFTDQVLKFLSQDELVYTFGETVALGASGIVIWGTLSIMRSMKSCLLLDNYMETILNPYIINVTLAAKMCSQVLCQEQGVCIRKNWNSSDYLHLNPDNFAIQLEKGGKFTVRGKPTLEDLEQFSEKFYCSCYSTLSCKEKADVKDTDAVDVCIADGVCIDAFLKPPMETEEPQIFYNASPSTLSATMFIVSILFLI
chain 2: LNFRAPPVIPNVPFLWAWNAPSEFCLGKFDEPLDMSLFSFIGSPRINATGQGVTIFYVDRLGYYPYIDSITGVTVNGGIPQKISLQDHLDKAKKDITFYMPVDNLGMAVIDWEEWRPTWARNWKPKDVYKNRSIELVQQQNVQLSLTEATEKAKQEFEKAGKDFLVETIKLGKLLRPNHLWGYYLFPDCYNHHYKKPGYNGSCFNVEIKRNDDLSWLWNESTALYPSIYLNTQQSPVAATLYVRNRVREAIRVSKIPDAKSPLPVFAYTRIVFTDQVLKFLSQDELVYTFGETVALGASGIVIWGTLSIMRSMKSCLLLDNYMETILNPYIINVTLAAKMCSQVLCQEQGVCIRKNWNSSDYLHLNPDNFAIQLEKGGKFTVRGKPTLEDLEQFSEKFYCSCYSTLSCKEKADVKDTDAVDVCIADGVCIDAFLKPPMETEEPQIFYNASPSTLSATMFIVSILFLI
modifications: HuPH20 precursor 1-502; Mature HuPH20 36-502
B6: SPAM1-IISS: C-terminally truncated human PH20, precursor 505 aa (SEQ ID NO:4), mature 470 aa (SEQ ID NO:56) (protein, listed as Homo sapiens)
chain 1: MGVLKFKHIFFRSFVKSSGVSQIVFTFLLIPCCLTLNFRAPPVIPNVPFLWAWNAPSEFCLGKFDEPLDMSLFSFIGSPRINATGQGVTIFYVDRLGYYPYIDSITGVTVNGGIPQKISLQDHLDKAKKDITFYMPVDNLGMAVIDWEEWRPTWARNWKPKDVYKNRSIELVQQQNVQLSLTEATEKAKQEFEKAGKDFLVETIKLGKLLRPNHLWGYYLFPDCYNHHYKKPGYNGSCFNVEIKRNDDLSWLWNESTALYPSIYLNTQQSPVAATLYVRNRVREAIRVSKIPDAKSPLPVFAYTRIVFTDQVLKFLSQDELVYTFGETVALGASGIVIWGTLSIMRSMKSCLLLDNYMETILNPYIINVTLAAKMCSQVLCQEQGVCIRKNWNSSDYLHLNPDNFAIQLEKGGKFTVRGKPTLEDLEQFSEKFYCSCYSTLSCKEKADVKDTDAVDVCIADGVCIDAFLKPPMETEEPQIFYNASPSTLSATMFIVSILFLIISS
chain 2: LNFRAPPVIPNVPFLWAWNAPSEFCLGKFDEPLDMSLFSFIGSPRINATGQGVTIFYVDRLGYYPYIDSITGVTVNGGIPQKISLQDHLDKAKKDITFYMPVDNLGMAVIDWEEWRPTWARNWKPKDVYKNRSIELVQQQNVQLSLTEATEKAKQEFEKAGKDFLVETIKLGKLLRPNHLWGYYLFPDCYNHHYKKPGYNGSCFNVEIKRNDDLSWLWNESTALYPSIYLNTQQSPVAATLYVRNRVREAIRVSKIPDAKSPLPVFAYTRIVFTDQVLKFLSQDELVYTFGETVALGASGIVIWGTLSIMRSMKSCLLLDNYMETILNPYIINVTLAAKMCSQVLCQEQGVCIRKNWNSSDYLHLNPDNFAIQLEKGGKFTVRGKPTLEDLEQFSEKFYCSCYSTLSCKEKADVKDTDAVDVCIADGVCIDAFLKPPMETEEPQIFYNASPSTLSATMFIVSILFLIISS
modifications: HuPH20 precursor 1-505; mature HuPH20 36-505

System: CHO-S cells
Assay: Western blot analysis of PH20 expression in media and cells after transient expression
Assay type: cell-based, Chinese Hamster
Conditions: band at approximately 66 kDa
Outline: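 CHO-S cells were transiently transfected with mutant PH20-HZ24 plasmids using GeneJuice and expressed for 48-72 h at 37 °C, 5% CO2. Media and cells were harvested separately, with PI-PLC treatment used to release GPI-anchored protein. Non-reduced samples were blotted with rabbit anti-PH20 (0.5 μg/mL), and a band near 66 kDa was scored as PH20.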

Row | Molecule | Protein Expression
1 | B1 | YES
2 | B2 | YES
3 | B3 | YES
4 | B4 | YES
5 | B5 | YES
6 | B6 | YES

— patent US9284543B2, “Neutral active soluble truncated PH20 polypeptides and uses thereof” (Halozyme, Inc., priority 2008, dated 2016)
